{"source": "paper PMC9210797", "binders": {"B1": {"name": "growth arrest-specific 8 (GAS8) (protein, UniProt Q60779 1-478)", "chain": "MAPKKKGKKGKAKGTAIVDGVAPEDMTKEQVEEHVARIREELDREREERNYFQLERDKIHTFWEITRRQLEEKKAELRNKDREMEEAEERHQVEIKVYKQKVKHLLYEHQNNLAEVKAEGTVVMKLAQKEHRTQEGALRKDMRVLKVELKEQELANEVVIKNLCLKQAEEITKMRNDFERQVREIEAKYDKKMKMLRDELDLRRKTEIHEVEERKNGQISTLMQRHEEAFTDIKNYYNDITLNNLALINSLKEQMEDMRKKEEHMEREMAEVTLQNRRLADPLQKAKDEMNEMQKRLGNHERDKQILVCTKARLKVAERELKDLKWEHEVLEQRFIKVQQEREELYRKFADAIQEVQQKTGFKNLLLERKLQALNAAVEKREVQFNEVLAASNLDPTALTLVSRKLEDVLESKNTTIKDLQYELARVCKAHNDLLRTYEAKLLAFGIPLDNVGFKPLETAVIGQTLGQGPAGLVGAPT"}}, "target": "dynein axonemal heavy chain 9 (DNAH9) (mouse (endogenous in lung tissue))", "assay": "co-IP; proteins extracted from mouse lung tissues, 3 ug target antibody or rabbit IgG overnight at 4 C, Protein A/G magnetic beads 2 h at RT, washed thrice with PBS, immunoblot", "note": "These are yes or no findings as the source states them, for the method shown. In cells and extracts the contact can be indirect. Binding can be weak; no strength is given."}
{"binder": "B1", "values": [{"measurement": "binding", "value": "binds"}]}
